Reference: the supplement of paper PMC4604168 (melanoma cell lines)
The other results are listed elsewhere or left out. Repeats are few or missing, and single values can be far off.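 Cells were imaged in 1,536-well plates, and nuclei stained with an antibody against cleaved PARP were counted against all DNA-stained nuclei to give the apoptosis fraction. Screening doses were chosen to leave most cells alive, and resting and induced cleaved-PARP levels differ strongly between cell lines.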

System: A2058
Assay: cleaved PARP positive nuclei fraction relative to DMSO control; melanoma cells; higher = more apoptosis
Settings: library dose: low library concentration; 72 h

In order of rising “cleaved PARP positive nuclei fraction” value:
1. O=C(Nc1cccc(Cl)c1)Nc1ncc(CCNc2ncnc3ccsc23)s1 + COc1cc2ncnc(Nc3ccc(Oc4ccccc4)cc3)c2cc1OC [SrcI1] (first compound 0.0008 µM, partner dose 2 µM)  43.6%
2. CC(C)(C)c1cnc(CSc2cnc(NC(=O)C3CCNCC3)s2)o1 + N#Cc1c(O)c2c(-c3ccc(-c4ccccc4O)cc3)csc2[nH]c1=O [A769662] (first compound 0.01 µM, partner dose 2 µM)  59.2%
3. C[C@]1(c2nc3c(C(N)=O)cccc3[nH]2)CCCN1 [Veliparib] + O=C(O)C(=O)Nc1sc2c(c1C(=O)O)CCNC2 [TCS401] (first compound 1.4 µM, partner dose 1.66667 µM)  70.7%
4. Cn1cncc1[C@@](N)(c1ccc(Cl)cc1)c1ccc2c(c1)c(-c1cccc(Cl)c1)cc(=O)n2C [tipifarnib] + c1cc(-c2cnn3cc(-c4ccc(OCCN5CCCCC5)cc4)cnc23)ccn1 [Dorsomorphin] (first compound 0.01 µM, partner dose 0.4 µM)  75.9%
5. Cn1nnc2c(C(N)=O)ncn2c1=O [temozolomide] + CC(C)CCN1c2nc(Nc3cc(F)c(O)c(F)c3)ncc2N(C)C(=O)C1C [BID1870] (first compound 2 µM, partner dose 0.2 µM)  79.8%
6. NC(=O)Nc1cc(-c2cccc(F)c2)sc1C(=O)N[C@H]1CCCNC1 + O=c1cc(-c2cccc3c2Sc2ccccc2S3)oc(N2CCOCC2)c1 [KU55933] (first compound 0.02 µM, partner dose 1 µM)  110%
7. Cn1c(Nc2ccc(C(F)(F)F)cc2)nc2cc(Oc3ccnc(-c4ncc(C(F)(F)F)[nH]4)c3)ccc21 + Oc1nc(-c2ccc(C(F)(F)F)cc2)nc2c1CSCC2 [XAV939] (first compound 0.08 µM, partner dose 2 µM)  164%
8. Cc1cc(N2CCOCC2)cc2[nH]c(-c3c(NC[C@@H](O)c4cccc(Cl)c4)cc[nH]c3=O)nc12 + Cn1cc(/C=C2\C(=O)Nc3cccnc32)c2ccccc21 [GW441756] (first compound 0.2 µM, partner dose 0.4 µM)  275%

System: A375
Assay: as above
Settings: library dose: low library concentration; 72 h

In order of falling “cleaved PARP positive nuclei fraction” value:
1. Cc1ccc(NC(=O)c2cccc(N(C)C)c2)cc1NC(=O)c1ccc(O)cc1 + COc1cc(N2CCC(N3CCN(C)CC3)CC2)ccc1Nc1ncc(Cl)c(Nc2ccccc2S(=O)(=O)C(C)C)n1 [NVP-TAE684] (first compound 2 µM, partner dose 0.08 µM)  687%
2. NC(=O)Nc1cc(-c2cccc(F)c2)sc1C(=O)N[C@H]1CCCNC1 + Cn1cc(/C=C2\C(=O)Nc3cccnc32)c2ccccc21 [GW441756] (first compound 0.02 µM, partner dose 0.4 µM)  614%
3. NC(=O)Nc1cc(-c2cccc(F)c2)sc1C(=O)N[C@H]1CCCNC1 + CCN(CC)CCCCNc1ncc2cc(-c3cc(OC)cc(OC)c3)c(NC(=O)NC(C)(C)C)nc2n1 [PD173074] (first compound 0.02 µM, partner dose 0.1 µM)  492%
4. COCC[n+]1c2c(n(Cc3cnccn3)c1C)C(=O)c1ccccc1C2=O + COc1ccc(COc2ccc(Cc3cnc(N)nc3N)cc2OC)cc1 [GW2580] (first compound 0.0004 µM, partner dose 1 µM)  450%
5. Cn1c(Nc2ccc(C(F)(F)F)cc2)nc2cc(Oc3ccnc(-c4ncc(C(F)(F)F)[nH]4)c3)ccc21 + COc1ccc(COc2ccc(Cc3cnc(N)nc3N)cc2OC)cc1 [GW2580] (first compound 0.08 µM, partner dose 1 µM)  420%
6. COCC[n+]1c2c(n(Cc3cnccn3)c1C)C(=O)c1ccccc1C2=O + CC(C)CCN1c2nc(Nc3cc(F)c(O)c(F)c3)ncc2N(C)C(=O)C1C [BID1870] (first compound 0.0004 µM, partner dose 0.2 µM)  414%
7. C=CCn1c(=O)c2cnc(Nc3ccc(N4CCN(C)CC4)cc3)nc2n1-c1cccc(C(C)(C)O)n1 + CC(C)CCN1c2nc(Nc3cc(F)c(O)c(F)c3)ncc2N(C)C(=O)C1C [BID1870] (first compound 0.02 µM, partner dose 0.2 µM)  356%
8. C[C@]1(c2nc3c(C(N)=O)cccc3[nH]2)CCCN1 [Veliparib] + COc1cc2ncnc(Nc3ccc(Oc4ccccc4)cc3)c2cc1OC [SrcI1] (first compound 1.4 µM, partner dose 2 µM)  316%
9. O=C(Nc1cccc(Cl)c1)Nc1ncc(CCNc2ncnc3ccsc23)s1 + COc1ccc(-c2ccc3c(N4CCOCC4)nc(N4C[C@@H](C)O[C@@H](C)C4)nc3n2)cc1CO [KU0063794] (first compound 0.0008 µM, partner dose 0.02 µM)  274%
10. Cc1nc(Nc2ncc(C(=O)Nc3c(C)cccc3Cl)s2)cc(N2CCN(CCO)CC2)n1 [dasatanib] + CCN(CC)CCCCNc1ncc2cc(-c3cc(OC)cc(OC)c3)c(NC(=O)NC(C)(C)C)nc2n1 [PD173074] (first compound 0.004 µM, partner dose 0.1 µM)  261%
11. COc1cc(Nc2ncc(F)c(Nc3ccc4c(n3)NC(=O)C(C)(C)O4)n2)cc(OC)c1OC [Tamatinib] + COc1cc(N2CCC(N3CCN(C)CC3)CC2)ccc1Nc1ncc(Cl)c(Nc2ccccc2S(=O)(=O)C(C)C)n1 [NVP-TAE684] (first compound 0.4 µM, partner dose 0.08 µM)  183%
12. C=CCn1c(=O)c2cnc(Nc3ccc(N4CCN(C)CC4)cc3)nc2n1-c1cccc(C(C)(C)O)n1 + O=S(=O)(c1ccccc1)N(CC(F)(F)F)c1ccc(C(O)(C(F)(F)F)C(F)(F)F)cc1 [T0901317] (first compound 0.02 µM, partner dose 1.4 µM)  178%
13. O=C(Nc1cccc(Cl)c1)Nc1ncc(CCNc2ncnc3ccsc23)s1 + COc1cc(N2CCC(N3CCN(C)CC3)CC2)ccc1Nc1ncc(Cl)c(Nc2ccccc2S(=O)(=O)C(C)C)n1 [NVP-TAE684] (first compound 0.0008 µM, partner dose 0.08 µM)  143%
14. COCC[n+]1c2c(n(Cc3cnccn3)c1C)C(=O)c1ccccc1C2=O + O=c1cc(-c2cccc3c2Sc2ccccc2S3)oc(N2CCOCC2)c1 [KU55933] (first compound 0.0004 µM, partner dose 1 µM)  141%
15. O=C(Nc1cccc(Cl)c1)Nc1ncc(CCNc2ncnc3ccsc23)s1 + CCc1ccc(CCOc2ccc(CC3SC(=O)NC3=O)cc2)nc1 [pioglitazone] (first compound 0.0008 µM, partner dose 2 µM)  140%
16. O=C(CCCCCCC(=O)Nc1ccccc1)NO [vorinostat] + CCCCCCCCCCCC1=C(O)C(=O)C=C(O)C1=O [Embelin] (first compound 0.08 µM, partner dose 1.2 µM)  124%
17. Cn1cncc1[C@@](N)(c1ccc(Cl)cc1)c1ccc2c(c1)c(-c1cccc(Cl)c1)cc(=O)n2C [tipifarnib] + CCc1ccc(CCOc2ccc(CC3SC(=O)NC3=O)cc2)nc1 [pioglitazone] (first compound 0.01 µM, partner dose 2 µM)  112%
18. Nc1cccc2c1CN(C1CCC(=O)NC1=O)C2=O (stereo not drawn) [lenalidomide] + COc1ccc(-c2ccc3c(N4CCOCC4)nc(N4C[C@@H](C)O[C@@H](C)C4)nc3n2)cc1CO [KU0063794] (first compound 1 µM, partner dose 0.02 µM)  110%
19. CO[C@@H]1[C@H](N(C)C(=O)c2ccccc2)C[C@H]2O[C@]1(C)n1c3ccccc3c3c4c(c5c6ccccc6n2c5c31)C(=O)NC4 [Midostaurin] + O=S(=O)(c1ccccc1)N(CC(F)(F)F)c1ccc(C(O)(C(F)(F)F)C(F)(F)F)cc1 [T0901317] (first compound 0.08 µM, partner dose 1.4 µM)  101%
20. CC(C)(C)c1cnc(CSc2cnc(NC(=O)C3CCNCC3)s2)o1 + Cc1cc([N+](=O)[O-])ccc1NS(=O)(=O)c1cc(Cl)ccc1Cl [FH535] (first compound 0.01 µM, partner dose 1 µM)  100%
21. Cc1ccc(NC(=O)c2cccc(N(C)C)c2)cc1NC(=O)c1ccc(O)cc1 + COC(=O)c1sccc1S(=O)(=O)Nc1ccc(Nc2ccccc2)cc1OC [GSK0660] (first compound 2 µM, partner dose 1 µM)  61.8%
22. Nc1cccc2c1CN(C1CCC(=O)NC1=O)C2=O (stereo not drawn) [lenalidomide] + COC(=O)c1sccc1S(=O)(=O)Nc1ccc(Nc2ccccc2)cc1OC [GSK0660] (first compound 1 µM, partner dose 1 µM)  49.1%
23. O=C(CCCCCCC(=O)Nc1ccccc1)NO [vorinostat] + COc1cc(N2CCC(N3CCN(C)CC3)CC2)ccc1Nc1ncc(Cl)c(Nc2ccccc2S(=O)(=O)C(C)C)n1 [NVP-TAE684] (first compound 0.08 µM, partner dose 0.08 µM)  41.9%
24. O=C(Nc1cccc(Cl)c1)Nc1ncc(CCNc2ncnc3ccsc23)s1 + COC(=O)c1sccc1S(=O)(=O)Nc1ccc(Nc2ccccc2)cc1OC [GSK0660] (first compound 0.0008 µM, partner dose 1 µM)  38.3%
25. Cc1ccc(NC(=O)c2cccc(N(C)C)c2)cc1NC(=O)c1ccc(O)cc1 + CCCCCCCCCCCC1=C(O)C(=O)C=C(O)C1=O [Embelin] (first compound 2 µM, partner dose 1.2 µM)  26.7%
